For 1 molecule, binding results are on record in publication doi:10.1101/316000.

These are yes or no findings as the source states them, for the method shown. In cells and extracts the contact can be indirect. Some results given as binding are weak or reduced against the parent protein; the word gives no strength.

In this assay the target is T1, TRAF6, endogenous in murine iTregs (mouse (endogenous in iTregs)) (UniProt P70196).
T1 sequence: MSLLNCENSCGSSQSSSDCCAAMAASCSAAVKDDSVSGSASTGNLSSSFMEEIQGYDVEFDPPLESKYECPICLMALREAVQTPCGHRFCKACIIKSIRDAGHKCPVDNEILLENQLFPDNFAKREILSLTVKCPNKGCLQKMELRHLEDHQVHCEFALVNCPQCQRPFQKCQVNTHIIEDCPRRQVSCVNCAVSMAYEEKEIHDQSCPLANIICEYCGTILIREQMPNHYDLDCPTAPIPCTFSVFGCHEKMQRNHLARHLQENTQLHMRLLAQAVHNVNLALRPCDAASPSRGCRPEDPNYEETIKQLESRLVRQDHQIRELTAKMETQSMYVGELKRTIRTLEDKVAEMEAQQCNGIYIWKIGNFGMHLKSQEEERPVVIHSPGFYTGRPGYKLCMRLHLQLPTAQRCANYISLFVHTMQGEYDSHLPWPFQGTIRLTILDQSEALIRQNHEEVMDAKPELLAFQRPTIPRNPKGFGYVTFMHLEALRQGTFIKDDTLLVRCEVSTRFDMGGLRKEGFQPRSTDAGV
Put plainly: co-IP.

B1: Foxp3, endogenous in murine iTregs (protein, UniProt Q99JB6 1-417)
chain: MPNPRPAKPMAPSLALGPSPGVLPSWKTAPKGSELLGTRGSGGPFQGRDLRSGAHTSSSLNPLPPSQLQLPTVPLVMVAPSGARLGPSPHLQALLQDRPHFMHQLSTVDAHAQTPVLQVRPLDNPAMISLPPPSAATGVFSLKARPGLPPGINVASLEWVSREPALLCTFPRSGTPRKDSNLLAAPQGSYPLLANGVCKWPGCEKVFEEPEEFLKHCQADHLLDEKGKAQCLLQREVVQSLEQQLELEKEKLGAMQAHLAGKMALAKAPSVASMDKSSCCIVATSTQGSVLPAWSAPREAPDGGLFAVRRHLWGSHGNSSFPEFFHNMDYFKYHNMRPPFTYATLIRWAILEAPERQRTLNEIYHWFTRMFAYFRNHPATWKNAIRHNLSLHKCFVRVESEKGAVWTVDEFEFRKKR
As to B1, the binding entry is reported as “binds”.
